# Test: Height of foam of suspension mixes of coated Ibuprofen (aeration)
smiles,measurement,setting,value
C=C(C)[C@H]1CC=C(C)CC1 [limonene],Foam Height,0.30 % w/w in matrix solution/suspension with coated Ibuprofen,1 mm
same,Foam Height,0.6 % w/w in matrix solution/suspension with coated Ibuprofen,1 mm
same,Foam Height,[…] w/w in matrix solution/suspension with coated Ibuprofen,2 mm
